Data published in the supplement of paper PMC9744312.
Structures can show the parent of a compound that is named as a salt. This is one part of the list. Single values of this set are uncertain.

system: Peyronie's disease tunica albuginea primary fibroblasts; assay: inhibition of TGF-beta1-induced alpha-SMA expression (myofibroblast transformation), relative to TGF-beta1-only and untreated controls; higher = stronger inhibition of myofibroblast transformation; settings: 10 µM; TGF-beta1 10 ng/mL; 72 h

Row | SMILES | inhibition of TGF-beta1-induced alpha-SMA expression
1 | CCCCCCc1ccc(O)cc1O [Hexylresorcinol] | 51%
2 | O=C(/C=C\n1cnc(-c2cc(C(F)(F)F)cc(C(F)(F)F)c2)n1)NNc1cnccn1 [Selinexor (KPT-330)] | 68.4%
3 | CC1(C)NC(=O)N(c2ccc([N+](=O)[O-])c(C(F)(F)F)c2)C1=O [Nilutamide] | 29.7%
4 | COC(=O)[C@@H]1[C@H]2C[C@H]3c4[nH]c5ccccc5c4CCN3C[C@@H]2CC[C@@H]1O [Yohimbine HCl] | -16.9%
5 | CCS(=O)(=O)CCn1c([N+](=O)[O-])cnc1C [Tinidazole] | 39.1%
6 | N#C[C@@H]1C[C@@H]2C[C@@H]2N1C(=O)[C@@H](N)C12CC3CC(CC(O)(C3)C1)C2 [Saxagliptin hydrate] | 14%
7 | N#C[C@@H]1C[C@@H]2C[C@@H]2N1C(=O)[C@@H](N)C12CC3CC(CC(O)(C3)C1)C2 [Saxagliptin] | -0.684%
8 | O=C1CCc2cc(OCCCCc3nnnn3C3CCCCC3)ccc2N1 [Cilostazol] | -5.38%
9 | CCCCOc1cc(C(=O)NCCN(CC)CC)c2ccccc2n1 [Cinchocaine] | 3.4%
10 | CCCCOc1cc(C(=O)NCCN(CC)CC)c2ccccc2n1 [Dibucaine HCl] | 28%
11 | CCC1=C(C)CN(C(=O)NCCc2ccc(S(=O)(=O)NC(=O)N[C@H]3CC[C@H](C)CC3)cc2)C1=O [Glimepiride] | -1.54%
12 | OCc1cc(C(O)CNCCCCCCOCCCCc2ccccc2)ccc1O (configuration not stated) [Salmeterol] | 34.1%
13 | OCc1cc(C(O)CNCCCCCCOCCCCc2ccccc2)ccc1O (configuration not stated) [Salmeterol Xinafoate] | 12.4%
14 | CC(=O)OCC(=O)[C@@]12N=C(C)O[C@@H]1C[C@H]1[C@@H]3CCC4=CC(=O)C=C[C@]4(C)[C@H]3[C@@H](O)C[C@@]12C [Deflazacort] | 32.2%
15 | CNCCC(Oc1ccc(C(F)(F)F)cc1)c1ccccc1 (configuration not stated) [Fluoxetine HCl] | 23.8%
16 | Cc1nc2n(c(=O)c1CCN1CCC(c3noc4cc(F)ccc34)CC1)CCCC2 [Risperidone] | 6.2%
17 | N=C(N)NCCC[C@H](N)C(=O)O [L-Arginine HCl (L-Arg)] | 10.6%
18 | CC1CCC(C(C)C)C(O)C1 (single isomer, unassigned; (-)) [(-)-Menthol] | 13.7%
19 | CC(=O)Nc1ccc(CC(=O)O)cc1 [Actarit] | 17.5%
20 | C[C@@H](CN1CC(=O)NC(=O)C1)N1CC(=O)NC(=O)C1 [Dexrazoxane] | 27.7%
21 | C[C@@H](CN1CC(=O)NC(=O)C1)N1CC(=O)NC(=O)C1 [Dexrazoxane HCl (ICRF-187, ADR-529)] | -17.6%

Random excerpt: 3 entries already listed, in no set order.
Row | SMILES | inhibition of TGF-beta1-induced alpha-SMA expression
16 | Cc1nc2n(c(=O)c1CCN1CCC(c3noc4cc(F)ccc34)CC1)CCCC2 [Risperidone] | 6.2%
20 | C[C@@H](CN1CC(=O)NC(=O)C1)N1CC(=O)NC(=O)C1 [Dexrazoxane] | 27.7%
7 | N#C[C@@H]1C[C@@H]2C[C@@H]2N1C(=O)[C@@H](N)C12CC3CC(CC(O)(C3)C1)C2 [Saxagliptin] | -0.684%

Remaining list, next part

Row | SMILES | inhibition of TGF-beta1-induced alpha-SMA expression
22 | CC(=O)N[C@H]1[C@H]([C@H](O)[C@H](O)CO)OC(C(=O)O)=C[C@@H]1NC(=N)N [Zanamivir] | 5.11%
23 | CCC(=O)O[C@]1(C(=O)CCl)[C@@H](C)C[C@H]2[C@@H]3C[C@H](F)C4=CC(=O)C=C[C@]4(C)[C@@]3(F)[C@@H](O)C[C@@]21C [Halobetasol Propionate] | 51.4%
24 | CCN1CC(CCN2CCOCC2)C(c2ccccc2)(c2ccccc2)C1=O (configuration not stated) [Doxapram HCl] | -2.54%
25 | CCN1CC(CCN2CCOCC2)C(c2ccccc2)(c2ccccc2)C1=O (configuration not stated) [Doxapram] | 14.5%
26 | CC[C@H](C)[C@H](NC(=O)[C@@H]1CCCN1C(=O)CNC(=O)[C@H](Cc1ccccc1)NC(=O)[C@H](CC(N)=O)NC(=O)[C@H](CC(N)=O)NC(=O)[C@H](CO)NC(=O)[C@H](CO)NC(=O)[C@H](Cc1c[nH]cn1)NC(=O)[C@@H](NC(=O)[C@H](CC(C)C)NC(=O)[C@H](Cc1ccccc1)NC(=O)[C@H](CC(N)=O)NC(=O)[C@H](C)NC(=O)[C@H](CC(C)C)NC(=O)[C@H](CCCNC(=N)N)NC(=O)[C@H](CCC(N)=O)NC(=O)[C@@H](NC(=O)[C@H](C)NC(=O)[C@@H]1CSSC[C@H](NC(=O)[C@@H](N)CCCCN)C(=O)N[C@@H](CC(N)=O)C(=O)N[C@@H]([C@@H](C)O)C(=O)N[C@@H](C)C(=O)N[C@@H]([C@@H](C)O)C(=O)N1)[C@@H](C)O)C(C)C)C(=O)N[C@@H](CC(C)C)C(=O)N1CCC[C@H]1C(=O)N1CCC[C@H]1C(=O)N[C@H](C(=O)N[C@@H](CC(N)=O)C(=O)N[C@H](C(=O)NCC(=O)N[C@@H](CO)C(=O)N[C@@H](CC(N)=O)C(=O)N[C@H](C(=O)N[C@@H](Cc1ccc(O)cc1)C(N)=O)[C@@H](C)O)C(C)C)[C@@H](C)O [Pramlintide Acetate] | 51.2%
27 | CCCCNC(=O)NS(=O)(=O)c1ccc(C)cc1 [Tolbutamide] | 29.7%
28 | O=C(O)c1cc(-c2ccc(F)cc2F)ccc1O [Diflunisal] | 43.8%
29 | CCOC(=O)OC(C)OC1=C(C(=O)Nc2ccccn2)N(C)S(=O)(=O)c2ccccc21 (configuration not stated) [Ampiroxicam] | 20.8%
30 | O=C(Nc1c(Cl)cncc1Cl)c1ccc(OC(F)F)c(OCC2CC2)c1 [Roflumilast] | 49%
31 | CCCS(=O)(=O)Nc1ccc(F)c(C(=O)c2c[nH]c3ncc(-c4ccc(Cl)cc4)cc23)c1F [Vemurafenib (PLX4032, RG7204)] | 16.2%
32 | CCCCCCCCCCCCC[N+](C)(C)Cc1ccccc1 [Benzalkonium chloride] | > 100%
33 | CCOc1ccccc1OCCN[C@H](C)Cc1ccc(OC)c(S(N)(=O)=O)c1 [Tamsulosin hydrochloride] | -35.7%
34 | CCn1cc(C(=O)O)c(=O)c2cnc(N3CCCC3)nc21 [Piromidic Acid] | -13.9%
35 | O=S(=O)(O)CCS [Mesna] | -2.79%
36 | COc1ccc(-c2nc3cc(C4=NNC(=O)CC4C)ccc3[nH]2)cc1 (configuration not stated) [Pimobendan] | 54.9%
37 | NS(=O)(=O)c1cc2c(cc1Cl)N=CNS2(=O)=O [Chlorothiazide] | 12.5%
38 | CN[C@H](CC(C)C)C(=O)N[C@H]1C(=O)N[C@@H](CC(N)=O)C(=O)N[C@H]2C(=O)N[C@H]3C(=O)N[C@H](C(=O)N[C@H](C(=O)O)c4cc(O)cc(O)c4-c4cc3ccc4O)[C@H](O)c3ccc(c(Cl)c3)Oc3cc2cc(c3O[C@@H]2O[C@H](CO)[C@@H](O)[C@H](O)[C@H]2O[C@H]2C[C@](C)(N)[C@H](O)[C@H](C)O2)Oc2ccc(cc2Cl)[C@H]1O [Vancomycin HCl] | -22.9%
39 | CNS(=O)(=O)Cc1ccc2[nH]cc(CCN(C)C)c2c1 [Sumatriptan Succinate] | 30.7%
40 | NC(=O)c1ncn([C@@H]2O[C@H](CO)[C@@H](O)[C@H]2O)n1 [Ribavirin] | 11.1%
41 | CCOC(=O)[C@H](CCc1ccccc1)N[C@@H](C)C(=O)N1[C@H](C(=O)O)C[C@@H]2CCC[C@@H]21 [Ramipril] | 0.239%
42 | O=C(O)c1cc(=O)c2ccccc2o1 [Chromocarb] | -12.8%

Row | SMILES | inhibition of TGF-beta1-induced alpha-SMA expression
43 | NS(=O)(=O)c1cc(C(=O)O)c(NCc2ccco2)cc1Cl [Furosemide] | 8.15%
44 | NCCCC[C@H](NC(=O)[C@@H]1CCCN1C(=O)[C@@H]1CSSC[C@H](NC(=O)CNC(=O)CNC(=O)CN)C(=O)N[C@@H](Cc2ccc(O)cc2)C(=O)N[C@@H](Cc2ccccc2)C(=O)N[C@@H](CCC(N)=O)C(=O)N[C@@H](CC(N)=O)C(=O)N1)C(=O)NCC(N)=O [Terlipressin Acetate] | 32.4%
45 | CCOc1cc([C@@H](CS(C)(=O)=O)N2C(=O)c3cccc(NC(C)=O)c3C2=O)ccc1OC | 97.9%
46 | CC1=C(C(=O)OC(C)C)C(c2cccc([N+](=O)[O-])c2)C(C(=O)OC2CN(C(c3ccccc3)c3ccccc3)C2)=C(N)N1 (configuration not stated) [Azelnidipine] | 13.2%
47 | Cc1cc(C2CCCCC2)n(O)c(=O)c1 [Ciclopirox] | > 100%
48 | Cc1cc(C2CCCCC2)n(O)c(=O)c1 [Ciclopirox ethanolamine] | 97.2%
49 | COc1cc(C(=O)NS(=O)(=O)c2ccccc2C)ccc1Cc1cn(C)c2ccc(NC(=O)OC3CCCC3)cc12 [Zafirlukast] | -15.7%
50 | Nc1ccccc1NC(=O)c1ccc(CNC(=O)OCc2cccnc2)cc1 [Entinostat (MS-275)] | 83.5%
51 | CN(C)C(=O)COC(=O)Cc1ccc(OC(=O)c2ccc(NC(=N)N)cc2)cc1 [Camostat Mesilate] | -25.6%
52 | N=C(N)NC(=O)c1nc(Cl)c(N)nc1N [Amiloride HCl] | 11.5%
53 | N=C(N)NC(=O)c1nc(Cl)c(N)nc1N [Amiloride HCl dihydrate] | 3.76%
54 | CCCCOC(=O)c1ccc(N)cc1 [Butamben] | -15.4%
55 | N[C@@H]1CCCCN(c2c(F)cc3c(=O)c(C(=O)O)cn(C4CC4)c3c2Cl)C1 [Besifloxacin HCl] | 69.7%
56 | CC[C@H]1OC(=O)[C@H](C)[C@@H](O[C@H]2C[C@@](C)(OC)[C@@H](O)[C@H](C)O2)[C@H](C)[C@@H](O[C@@H]2O[C@H](C)C[C@H](N(C)C)[C@H]2O)[C@](C)(OC)C[C@@H](C)C(=O)[C@H](C)[C@@H](O)[C@]1(C)O [Clarithromycin] | 27.2%
57 | NC(=O)Cc1cccc(C(=O)c2ccccc2)c1N [Nepafenac] | 11.8%
58 | CCCCC1=NC2(CCCC2)C(=O)N1Cc1ccc(-c2ccccc2-c2nnn[nH]2)cc1 [Irbesartan] | 39.7%
59 | COCC1=C(C(=O)OC(C)OC(=O)OC(C)C)N2C(=O)[C@@H](NC(=O)/C(=N\OC)c3csc(N)n3)[C@H]2SC1 (some centres not stated) [Cefpodoxime proxetil] | 30.1%
60 | COc1ccc([C@H]2CNC(=O)C2)cc1OC1CCCC1 [S- (+)-Rolipram] | 36.4%
61 | COc1cc(Cc2cnc(N)nc2N)cc(OC)c1OC [Trimethoprim] | 28%
62 | CN(C(=O)c1ccc(F)cc1C(F)(F)F)C1CCN(c2nnc(-c3ccnn3C)c3ccccc23)CC1 | 18.8%
